Test [1] has as its target T1, MYCT1 (MYC target 1) (human) (UniProt Q8N699).
T1 sequence: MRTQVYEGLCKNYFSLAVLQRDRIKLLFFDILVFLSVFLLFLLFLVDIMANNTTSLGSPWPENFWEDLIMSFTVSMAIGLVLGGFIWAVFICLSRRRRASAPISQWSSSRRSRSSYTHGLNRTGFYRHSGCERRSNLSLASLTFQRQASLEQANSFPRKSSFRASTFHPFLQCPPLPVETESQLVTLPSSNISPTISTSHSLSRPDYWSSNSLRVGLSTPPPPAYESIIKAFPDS
The experiment in a line: co-IP; cell lysates of DLBCL and HEK293T cells; precleared with agarose beads and IgG; target antibody (anti-MAX or anti-MYCT1) or IgG overnight at 4 °C, agarose beads, PBS washes, immunoblot.

Amino acid sequences for entries named in this document (tags omitted).
UniProt P61244: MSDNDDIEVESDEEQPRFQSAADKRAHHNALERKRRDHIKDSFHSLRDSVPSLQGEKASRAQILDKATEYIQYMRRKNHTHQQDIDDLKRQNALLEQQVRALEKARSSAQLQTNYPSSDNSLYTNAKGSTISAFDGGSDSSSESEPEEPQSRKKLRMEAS

Test [2] deals with MAX (MYC associated factor X) (human) (UniProt P61244). The description is as above.

These are yes or no findings as the source states them, for the method shown. In cells and extracts the contact can be indirect. Some binding calls cover weakened binding; strength is not graded here. Sequences can lack the tags named with a protein.

With “MAX (MYC associated factor X) (from UniProt P61244 1-160)”, the binding entry in test [1] is listed as “binds”.

B1: MYCT1 (MYC target 1) (protein, UniProt Q8N699 1-235)
chain: MRTQVYEGLCKNYFSLAVLQRDRIKLLFFDILVFLSVFLLFLLFLVDIMANNTTSLGSPWPENFWEDLIMSFTVSMAIGLVLGGFIWAVFICLSRRRRASAPISQWSSSRRSRSSYTHGLNRTGFYRHSGCERRSNLSLASLTFQRQASLEQANSFPRKSSFRASTFHPFLQCPPLPVETESQLVTLPSSNISPTISTSHSLSRPDYWSSNSLRVGLSTPPPPAYESIIKAFPDS
Turning to B1, in test [2], the binding result is “binds”.
